Here are results for two molecules from article PMC3114867.

Protein sequences, listed by entry. Tags and fused reporters are not part of them.
UniProt P62993: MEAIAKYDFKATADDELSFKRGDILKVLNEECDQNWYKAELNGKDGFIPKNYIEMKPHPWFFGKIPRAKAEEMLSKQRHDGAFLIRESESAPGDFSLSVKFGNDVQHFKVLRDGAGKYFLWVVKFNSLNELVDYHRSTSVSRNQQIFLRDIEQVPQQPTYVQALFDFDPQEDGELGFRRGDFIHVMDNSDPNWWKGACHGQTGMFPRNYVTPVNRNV

Assay [1] has as its target T1, LyGDI (RhoGDIβ, RhoGDI2, D4-GDI or GDID4) (human (endogenous in THP-1)) (UniProt P52566).
T1 sequence: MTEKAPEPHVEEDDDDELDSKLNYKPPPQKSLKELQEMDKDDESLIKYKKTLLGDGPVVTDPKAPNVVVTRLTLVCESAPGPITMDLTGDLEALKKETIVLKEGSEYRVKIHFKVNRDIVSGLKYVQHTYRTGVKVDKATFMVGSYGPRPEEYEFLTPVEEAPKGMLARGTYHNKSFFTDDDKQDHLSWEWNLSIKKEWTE
Nature of the assay: co-IP; endogenous proteins from resting and FcγR-stimulated (CD32, FcγRI 32.2 or FcγRIIa IV.3 antibodies) THP-1 lysates in TN1 lysis buffer; antibody overnight, protein G-agarose 60 minutes at 4°C, Western blot; also in non-depleted and Shc-immunodepleted lysates.

Assay [2] addresses T2, SHIP (SH2 domain-containing inositol phosphatase) (human (endogenous in THP-1)) (UniProt Q92835).
T2 sequence: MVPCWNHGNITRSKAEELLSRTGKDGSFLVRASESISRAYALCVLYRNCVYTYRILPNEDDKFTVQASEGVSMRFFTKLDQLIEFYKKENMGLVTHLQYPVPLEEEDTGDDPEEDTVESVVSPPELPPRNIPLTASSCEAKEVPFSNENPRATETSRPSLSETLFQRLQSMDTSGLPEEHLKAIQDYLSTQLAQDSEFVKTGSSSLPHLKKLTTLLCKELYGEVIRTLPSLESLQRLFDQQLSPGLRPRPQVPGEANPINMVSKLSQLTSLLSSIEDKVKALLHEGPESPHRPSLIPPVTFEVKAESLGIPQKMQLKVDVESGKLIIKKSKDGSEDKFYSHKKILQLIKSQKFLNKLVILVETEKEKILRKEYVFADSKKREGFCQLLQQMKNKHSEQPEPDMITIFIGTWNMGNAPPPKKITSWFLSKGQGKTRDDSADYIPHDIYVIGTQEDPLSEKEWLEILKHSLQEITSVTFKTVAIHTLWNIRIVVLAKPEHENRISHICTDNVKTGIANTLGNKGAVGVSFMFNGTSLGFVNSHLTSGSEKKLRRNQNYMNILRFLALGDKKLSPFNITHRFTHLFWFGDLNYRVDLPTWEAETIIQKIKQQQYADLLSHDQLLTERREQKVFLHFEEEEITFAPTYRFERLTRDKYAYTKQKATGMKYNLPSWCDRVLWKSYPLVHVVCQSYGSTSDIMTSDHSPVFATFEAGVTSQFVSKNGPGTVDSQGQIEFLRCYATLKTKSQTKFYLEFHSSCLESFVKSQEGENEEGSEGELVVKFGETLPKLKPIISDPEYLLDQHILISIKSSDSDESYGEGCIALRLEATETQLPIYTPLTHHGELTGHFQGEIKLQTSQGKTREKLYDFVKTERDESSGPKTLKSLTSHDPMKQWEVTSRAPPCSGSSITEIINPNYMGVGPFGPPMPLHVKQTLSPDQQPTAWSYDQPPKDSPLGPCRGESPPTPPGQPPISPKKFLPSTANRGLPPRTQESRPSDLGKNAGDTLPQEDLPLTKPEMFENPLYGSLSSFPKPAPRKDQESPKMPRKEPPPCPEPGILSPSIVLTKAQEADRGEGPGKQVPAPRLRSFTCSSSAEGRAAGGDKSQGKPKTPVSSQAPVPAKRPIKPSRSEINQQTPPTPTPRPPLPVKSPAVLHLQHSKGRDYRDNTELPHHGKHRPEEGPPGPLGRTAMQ
The description is as above.

These are yes or no findings as the source states them, for the method shown. In cells and extracts the contact can be indirect. Some binding calls cover weakened binding; strength is not graded here.

Grb2 (from UniProt P62993 1-217): the binding entry in assay [1] and in assay [2] was “binds” in each case.

B1: Shc (protein, UniProt P29353 1-583)
chain: MDLLPPKPKYNPLRNESLSSLEEGASGSTPPEELPSPSASSLGPILPPLPGDDSPTTLCSFFPRMSNLRLANPAGGRPGSKGEPGRAADDGEGIVGAAMPDSGPLPLLQDMNKLSGGGGRRTRVEGGQLGGEEWTRHGSFVNKPTRGWLHPNDKVMGPGVSYLVRYMGCVEVLQSMRALDFNTRTQVTREAISLVCEAVPGAKGATRRRKPCSRPLSSILGRSNLKFAGMPITLTVSTSSLNLMAADCKQIIANHHMQSISFASGGDPDTAEYVAYVAKDPVNQRACHILECPEGLAQDVISTIGQAFELRFKQYLRNPPKLVTPHDRMAGFDGSAWDEEEEEPPDHQYYNDFPGKEPPLGGVVDMRLREGAAPGAARPTAPNAQTPSHLGATLPVGQPVGGDPEVRKQMPPPPPCPGRELFDDPSYVNVQNLDKARQAVGGAGPPNPAINGSAPRDLFDMKPFEDALRVPPPPQSVSMAEQLRGEPWFHGKLSRREAEALLQLNGDFLVRESTTTPGQYVLTGLQSGQPKHLLLVDPEGVVRTKDHRFESVSHLISYHMDNHLPIISAGSELCLQQPVERKL
With B1, the binding entry in assay [1] and in assay [2] was “binds” in each case.
